According to PMC6889187:
Results are given in words; binding and its absence hold for the method and conditions named. Binding seen in cells or lysates may run through a third protein. Some binding calls cover weakened binding; strength is not graded here.

By UniProt entry, the sequences of proteins in these tests, tags left out. Residues count along the entry.
UniProt P10451, residues 17-314: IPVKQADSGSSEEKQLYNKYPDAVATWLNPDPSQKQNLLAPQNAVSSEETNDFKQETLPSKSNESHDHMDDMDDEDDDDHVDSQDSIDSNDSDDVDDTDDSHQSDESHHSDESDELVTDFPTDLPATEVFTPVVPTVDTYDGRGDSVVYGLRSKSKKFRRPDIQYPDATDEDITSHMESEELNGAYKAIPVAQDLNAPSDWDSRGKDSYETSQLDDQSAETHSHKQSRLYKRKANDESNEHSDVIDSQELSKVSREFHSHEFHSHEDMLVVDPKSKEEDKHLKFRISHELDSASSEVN
UniProt Q04912, residues 25-1400: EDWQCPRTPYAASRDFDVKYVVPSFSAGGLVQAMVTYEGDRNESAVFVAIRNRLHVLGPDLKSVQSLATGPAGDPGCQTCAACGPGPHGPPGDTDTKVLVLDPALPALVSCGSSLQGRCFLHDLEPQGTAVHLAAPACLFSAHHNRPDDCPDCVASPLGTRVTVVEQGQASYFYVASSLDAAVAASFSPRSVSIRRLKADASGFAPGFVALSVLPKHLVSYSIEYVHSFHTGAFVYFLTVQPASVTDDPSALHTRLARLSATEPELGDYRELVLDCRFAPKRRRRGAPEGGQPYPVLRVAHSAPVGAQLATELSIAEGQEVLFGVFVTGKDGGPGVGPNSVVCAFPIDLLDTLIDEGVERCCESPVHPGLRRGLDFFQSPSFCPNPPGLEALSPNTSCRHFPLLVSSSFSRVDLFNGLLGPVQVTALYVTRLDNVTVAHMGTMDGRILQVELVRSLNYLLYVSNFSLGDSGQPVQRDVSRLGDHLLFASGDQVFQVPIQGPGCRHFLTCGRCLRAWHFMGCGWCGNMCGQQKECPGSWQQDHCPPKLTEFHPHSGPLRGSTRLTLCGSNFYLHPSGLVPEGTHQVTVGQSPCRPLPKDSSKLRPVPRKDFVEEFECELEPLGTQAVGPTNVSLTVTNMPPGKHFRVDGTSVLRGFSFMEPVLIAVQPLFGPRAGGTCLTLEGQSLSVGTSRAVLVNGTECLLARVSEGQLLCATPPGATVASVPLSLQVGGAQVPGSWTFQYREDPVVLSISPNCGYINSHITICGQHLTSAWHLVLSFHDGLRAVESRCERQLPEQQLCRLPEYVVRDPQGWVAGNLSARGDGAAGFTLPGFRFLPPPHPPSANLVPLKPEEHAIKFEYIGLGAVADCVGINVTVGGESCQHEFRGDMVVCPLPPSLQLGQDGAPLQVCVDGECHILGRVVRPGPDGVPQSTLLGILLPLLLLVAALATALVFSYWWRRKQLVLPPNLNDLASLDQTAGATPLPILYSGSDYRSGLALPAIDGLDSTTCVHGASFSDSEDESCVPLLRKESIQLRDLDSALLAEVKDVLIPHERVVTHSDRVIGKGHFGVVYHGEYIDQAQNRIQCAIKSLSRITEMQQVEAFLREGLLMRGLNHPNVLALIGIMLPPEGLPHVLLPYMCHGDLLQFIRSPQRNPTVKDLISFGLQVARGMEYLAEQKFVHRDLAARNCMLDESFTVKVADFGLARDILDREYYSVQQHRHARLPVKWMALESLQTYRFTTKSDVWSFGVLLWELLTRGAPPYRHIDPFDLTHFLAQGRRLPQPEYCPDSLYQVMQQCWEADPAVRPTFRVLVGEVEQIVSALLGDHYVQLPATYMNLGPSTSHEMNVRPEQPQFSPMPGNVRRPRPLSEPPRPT

Target: Osteopontin (human (endogenous in A549)) (UniProt P10451)
Test: co-IP; IP of OPN with an anti-OPN antibody from whole cell lysate of A549 cells; irrelevant IgG as control; western blotting of the precipitate

For “Recepteur d'Origine Nantais (from UniProt Q04912 25-1400) (receptor)”, the binding was “binds”.
